Reference: PubChem BioAssay AID1347423 (Functional Genomics Laboratory (NCATS/FGL), 2020)
Hit rate of the full screen: of about 52,000 sequences, about 210 (0.4%) were called active.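 Rule for the calls: active = gene whose silencing raises cell survival under the drug, median off-target-corrected z-score across its silencing RNAs 2 or more; inactive = the rest.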 This is one part of the list.

Test: Resistance to Poly (ADP-Ribose) Polymerase inhibitor: Gene Identification via Genome-wide siRNA Screen
Conditions: mouse BRCA2 R2336H ES cells, olaparib, CellTiter-Glo viability; hits give high values
Summary of the method: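 Genome-wide siRNA screen (3 siRNAs/gene, 20 nM) in mouse ES cells carrying hypomorphic BRCA2 R2336H; olaparib 500 nM added 48 h post-transfection, CellTiter-Glo viability 72 h later. Normalized to plate-median negative control; MAD z-scores, gene median, seed-adjusted.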

| Sequence | z-score |
| --- | --- |
| GGUCUCCCUUCAGUAUGAGTT against Ela3b | active: 2.47 |
| CGAAUUCACGAACUUGAGATT against D11Ertd461e | inactive: -0.0198 |
| GGAUUUCCUAGUAUCUAUGTT against Spnb1 | inactive: 0.448 |
| AAUCUUGAGAGAUUUCUCCTT against Scd2 | inactive: 0.369 |
| GGGCAUUGACCACAAAAAGTT against 1200002M06Rik | inactive: 0.349 |
| GCGGGAAACUACGAUAGUCTT against Gk-rs1 | inactive: -0.08 |
| GGUCAUAUGAGCGCACAGGTT against Ccnl2 | inactive: 0.304 |
| CCAUUCUCCUCAGAUACUCTT against Slc25a17 | inactive: 0.204 |
| GCAAACUGUGGACAUUUAATT against Gabra5 | inactive: -0.0937 |
| GGUAUUUGAAGGGACAUCUTT against Atp6v1b2 | inactive: 0.311 |
| GGACACAAAGAAGAAGAGGTT against A530046H20Rik | inactive: 1.55 |
| GGAAGUAGUCUUCUACAGUTT against Cyp4f15 | inactive: -0.288 |
| GCUCCCUUCCCAAUAAAGCTT against Gadd45gip1 | inactive: 1.39 |
| GGAAAAGGUUACCUUGCCCTT against 9030425E11Rik | inactive: 0.555 |
| GCAAAUGGAUCACAGGCCUTT against BC018399 | inactive: -2.17 |
| GCACUUACUCAAAUGGAACTT against Cyp2j6 | inactive: 0.167 |
| GGAACAUAUACUGGGCAACTT against Tcl1b1 | inactive: 0.794 |
| GCUUCCCUGGACCCAAUGUTT against Artn | inactive: 2.83 |
| GACAAAACAAUUUCCUAUGTT against Olfr805 | inactive: 0.0617 |
| GGUUUUCAUUGCCCAGUCCTT against Drbp1 | inactive: 1.72 |
| GGCUGCUUUCUGAUGGUCATT against A530081L18Rik | inactive: 0.122 |
| CCAGAUGCUAUGCUAGGGATT against BC049354 | inactive: -1.16 |
| CCACGCCAUCUUACUGACUTT against Adamts16 | inactive: 1.66 |
| GGACUUGUCCGCUCAUUGGTT against Usp54 | inactive: 0.263 |
| GGCGACUCUGUCACAAUUUTT against C1rl | inactive: -0.816 |
| GCAUUAUGCAAAUGAGGAUTT against Phtf2 | inactive: 0.0171 |

Some of the entries so far, comma-delimited.
Sequence,z-score
AAUCUUGAGAGAUUUCUCCTT against Scd2,inactive: 0.369
GGGCAUUGACCACAAAAAGTT against 1200002M06Rik,inactive: 0.349

Following part:

| Sequence | z-score |
| --- | --- |
| CCUGUCAUCUAUGCUAUGATT against Npnt | inactive: -1.17 |
| CGCAGACAACAAAGUAGAATT against Sars1 | inactive: 0.596 |
| GGCAGCAUUGAGUGUGUGATT against Asb13 | inactive: -2.9 |
| CCACUAAUUACAGUAACAUTT against Akr1c20 | inactive: 0.237 |
| GCAUUUUGUGGAAAAGGCUTT against Olfr582 | inactive: 0.742 |
| CGUGGAGAACUGGUAUCAGTT against Psg17 | inactive: -1.65 |
| GGAGAAGCCUGGAAGGAAATT against 1190017O12Rik | inactive: 0.696 |
| CCAGGACCUAGAGUACCUUTT against 1700012B18Rik | inactive: -1.19 |
| CGCAUUGCCAAACAACUCUTT against Gad2 | inactive: 0.13 |
| GCAAUGGUUGGUUCAAUAATT against 5730427C23Rik | inactive: -1.47 |
| GGAGAACGAUUUCGAUCGCTT against Cope | inactive: -0.00108 |
| GCUUUCACUAAUCAGUACATT against 2900045N06Rik | inactive: -1.32 |
| GGUUUCAAACUCUUGUAAUTT against Pgrmc1 | inactive: 0.968 |
| GGAUUGAUUUUUGGAGGGCTT against Fxyd4 | inactive: 0.579 |
| GGAACAUCUUUCUUCUCCATT against Abhd4 | inactive: -1.07 |
| GGGCAUGACAUUCGAGACATT against Accn2 | inactive: -0.621 |
| GCUCCCACCCUUAAAUAAUTT against Ltb4dh | inactive: -0.376 |
| CCGGACAAGUCGUUUUUUATT against Cdca1 | inactive: -2.51 |
| GCUACAGGUUUUAUCUCUUTT against Mylc2pl | inactive: -0.935 |
| GCUGUCUGUGGUUAUUGGGTT against 5730411O18Rik | inactive: -0.507 |
| GGAUUGUCAGCCAAGAAACTT against Ube1l | inactive: 0.652 |
| CCCUAAAACUUCUAUCGAGTT against Itgb4bp | inactive: -1.93 |
| GGUUUGAGGCGAGCUAACUTT against Rph3a | inactive: -2.3 |
| GCAAAUGUAUUAUGUCCUUTT against MGC54654 | inactive: 1.72 |
| GGCACAGGUUAGAUGAGAGTT against A830091I15Rik | inactive: -0.793 |
| GGAUUAUCCUGGCUUGUUGTT against Rdh12 | inactive: -0.246 |

| Sequence | z-score |
| --- | --- |
| GUGAUAAAUGCUGAUAGUGTT against Olfr1280 | inactive: 0.823 |
| GCAUAUGAUUAUUCUGGGATT against Cox7a2l | inactive: 0.896 |
| GGUUUAUCUCAAGUCUCAATT against 5730436H21Rik | inactive: -1.01 |
| CCACUUUCACCACAAAGUCTT against Klre1 | inactive: -0.131 |
| GGAAGCUGGCUGGAAAGAUTT against Saa2 | inactive: -1.18 |
| GCAUGUUAGGUGCUGUGCATT against A530082C11Rik | inactive: -3.17 |
| GGGAAAAAGCUAGAAAAAGTT against Gp1ba | inactive: 1.33 |
| AUCUAUUCGAAUCAGGAAGTT against Epsti1 | inactive: -1.1 |
| GCACUUGGGUAAAAAACUCTT against Bcorl1 | inactive: 0.555 |
| GGAGUCCUGAAGAAUAAAGTT against Tff3 | inactive: -0.456 |
| GGGCCCGAUAGAUAUAAACTT against B4galt5 | inactive: 0.851 |
| GGAAAAGAAAGUCUGCCAATT against Egfr | inactive: 0.645 |
| UCAACUGCUUAGAGCAUGUTT against ORF61 | inactive: 1.53 |
| GCUCUAUGAACCAGCUUCATT against Plekha6 | inactive: -0.647 |
| GGUCUCCAUAAGUGUCAGCTT against Cntfr | inactive: -0.605 |
| GGGUAAAAGUUGAGUAAAATT against Ppp1r14c | inactive: -0.64 |
| GCUGCCUAUGGCUUCUUCCTT against 1810008O21Rik | inactive: 1.01 |
| GGUCAUUCUUAAUUGUUCATT against Kpna6 | inactive: -1.32 |
| GGCAACAUGGUGAUCAUCGTT against Olfr323 | inactive: -2.57 |
| GCCGUGCUAUGUAUUAUUCTT against Ptk9 | inactive: 0.38 |
| GGACUCUCCUAUGUUAUAGTT against Nphs2 | inactive: 0.646 |
| GGAAACUGCUGAAAGGUUATT against D530025C17Rik | inactive: 0.764 |
| GGUCUUUAUUUACCUCUUUTT against Cyp2c39 | inactive: -1.29 |
| GCAACGAAGUGAAUUUGUUTT against Epha5 | inactive: -0.292 |
| GGAGCUGUUCUCUGAAAUGTT against Rabl4 | inactive: -0.0778 |
| GGAAGAAUUGAAUUGUAUGTT against Pom121 | inactive: 0.00316 |

As a working copy, some entries already given:

| Sequence | z-score |
| --- | --- |
| GGAGUCCUGAAGAAUAAAGTT against Tff3 | inactive: -0.456 |
| GGGCCCGAUAGAUAUAAACTT against B4galt5 | inactive: 0.851 |
| GGAAAAGAAAGUCUGCCAATT against Egfr | inactive: 0.645 |
| UCAACUGCUUAGAGCAUGUTT against ORF61 | inactive: 1.53 |
| GCUCUAUGAACCAGCUUCATT against Plekha6 | inactive: -0.647 |
| GGUCUCCAUAAGUGUCAGCTT against Cntfr | inactive: -0.605 |

(list continues)

| Sequence | z-score |
| --- | --- |
| CCUUAGGACAAGUAUUCUGTT against Cbx6 | inactive: 1.14 |
| CCAGUAAACCUACAUGUUCTT against Htr3b | inactive: 0.197 |
| GGUGUCUGUCAUGACCAUGTT against Tie1 | inactive: 2.02 |
| GGCAAUGAUGAGACCUAGUTT against Mybbp1a | inactive: -0.393 |
| GCAACCUGAUAGUGUGGUCTT against Crisp1 | inactive: 1.1 |
| GGAGGAAAUGCACUACAAGTT against F730014I05Rik | inactive: -0.771 |
| GCAUCUAUCGGAUUCUUAUTT against LOC234374 | inactive: -1.66 |
| GCCUUCUGAGAUAGUAGAUTT against Zcchc17 | inactive: -0.5 |
| GGAGCUGGAACAGAUGGAATT against Atf5 | inactive: -0.463 |
| GCUUCGAAGGCAAAUGUGGTT against Vamp4 | inactive: -0.51 |
| GGGUUCAAGAGAUGGGAAUTT against Efna5 | inactive: -1.95 |
| GCAUCGGCUAGUUCAGCCATT against LOC330863 | inactive: 0.303 |
| CCUCAAUCCUGGUCUAAAATT against Plcl2 | inactive: 0.223 |
| UGCCAUGGGACUCAUAGGCTT against Olfr160 | inactive: 1.19 |
| GGAUCACUACAAGUUGGCUTT against Gtpbp4 | inactive: 0.067 |
| GCUGUCUUUUAUGCAAGCATT against Bteb1 | inactive: -0.732 |
| CCUGUGAAUUCAUCGUUCATT against Dscr3 | inactive: 1.21 |
| GGCUACAAAGAUGCAGACUTT against Pi4k2a | inactive: -1.81 |
| GGCACUCAAUGUCUUCUAUTT against A530083I02Rik | inactive: 0.478 |
| GGGUCCUUUUUCACAUGGUTT against Asph | inactive: 0.568 |
| GGUGGACCUGAAACGUAGCTT against Inhbb | inactive: 0.118 |
| GGGUUACUUUAGCUAUUUCTT against Rbm14 | inactive: -0.226 |
| GGACGGACCUUUGUGUCUCTT against Axl | inactive: 1.15 |
| CGUUUGAAUAAUUCAGAGUTT against Armcx2 | inactive: -0.0626 |
| GGAACAGUGAUCCAUUUUATT against Btf3 | inactive: -2.51 |
| GGUUCUAAAACUUAACAAGTT against Brf2 | inactive: -0.875 |
